Source: PubChem BioAssay AID1259415 (National Center for Advancing Translational Sciences (NCATS), 2018)
The campaign covered roughly 410,000 compounds. About 18,000 (4.4%) were called active. Inconclusive means that the source gave no clear call. Such entries were picked first, then a sample of the others. No stated cut-off is given here; in the data, active means activity change below about -60%; inconclusive means no clear call, values can overlap the other calls; inactive means above about -39%.

Assay: qHTS Assay for inhibitors of the human cytomegalovirus (HCMV)
Settings: HFF cells, HCMV-luciferase reporter, 72 h; at 57.5 µM; active compounds read low
How it was run: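 HFF cells seeded 16 h at 37C, treated with compounds, infected with luciferase-reporter HCMV at MOI 1 PFU/cell; luciferase read at 72 h post infection, normalized to buffer-only and Salinomycin controls.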
On the % scale 0 is the no-effect control and ±100 the full control effect.

SMILES	activity change, negative = inhibition
Cc1cc(N2CCN(C)CC2)nc2ccc(NC(=O)Nc3ccccc3)cc12	inconclusive: -57.3%
COc1cc(/C=N/NC(=O)c2sc(N)c(C#N)c2C)cc(Br)c1O	active: -67%
Cc1cc(Nc2nnnn2-c2ccccc2)n(-c2ccc(Cl)cc2)n1	inconclusive: -57.1%
Cc1ccc(NC(=O)Nc2cc3c(cc2N2CCCCC2)n(C)c(=O)n3C)cc1Cl	active: -98.8%
COc1ccc(NC(=O)CC2C(=O)N(c3ccccc3)C(=O)N2Cc2cccnc2)cc1 (stereo unspecified)	inactive: -33.2%
O=C(CN1CCOCC1)N/N=C/c1ccc(C(=O)O)cc1	inactive: 218%
O=c1c2ccccc2nc(/C=C/c2cc(Br)ccc2O)n1CCCO	active: -96.3%
O=C(NCc1cccs1)[C@@H]1CCCN1S(=O)(=O)c1ccccc1F	inactive: -32.3%
Nc1c(NCCc2ccccc2)c2ccccc2oc1=O	inconclusive: -40.5%
Cc1ccccc1Nc1nc(N)nc(CSc2nc3ccccc3s2)n1	inactive: -5.34%
CCN(CC)S(=O)(=O)c1ccc(NC(=O)c2ccc(Cl)nc2)cc1	active: -62.4%
O=C(Nc1ccccc1)c1cccc(N2C(=O)C3C4C=CC(C5CC45)C3C2=O)c1 (stereo unspecified)	inactive: -23.6%
CCn1c(SCC(=O)NC2CC2)nnc1-c1ccccn1	active: -72.6%
Cn1nnnc1SCSc1nnnn1C	inactive: -7.9%
CCCCNc1nc2c(c(=O)n(C)c(=O)n2C)n1Cc1cccc(OC)c1	inconclusive: -53.7%
CCOc1ccc(NC(=O)CN(C)C(=O)c2cccnc2Sc2ccccc2Cl)cc1OCC	inconclusive: -42.3%
CCOc1ccc(N2C(=O)CC(Cc3ccc(Br)cc3)C2=O)cc1 (stereo unspecified)	inactive: -0.543%
COc1ccc(N=C2SC(C(=O)N3CCN(c4ccc([N+](=O)[O-])cc4)CC3)CC(=O)N2C)cc1 (stereo unspecified)	inactive: -16.7%
O=C(Nc1ccc(N2CCCC2)c(Cl)c1)c1ccco1	active: -89.6%
O=C(Nc1ccc2oc(-c3cccnc3)nc2c1)c1ccc(-c2cccc(OC(F)(F)F)c2)o1	active: -82%
COc1ccc2oc3ccc(OC)cc3c(=O)c2c1	inactive: 50.2%
O=C(N/N=C/c1[nH]c2ccccc2c1Cl)c1cccc(Br)c1	inactive: -31.9%
Cc1ccc(C(=O)Nc2ccc(-c3csc(C)n3)cc2)cc1	inconclusive: -58.9%

SMILES	activity change, negative = inhibition
COc1ccc([C@H]2CC(=O)C=C(c3cc(C)ccc3OC)C2)cc1	inactive: -1.12%
CC(C)Oc1ccc(CNC(=O)c2ccc3nc(SCc4ccc(F)cc4)n(C)c3c2)cc1	inactive: -21.3%
Cc1ccccc1Cn1c(C)c(CNCc2ccccc2)c(C(=O)O)c1C	inactive: 7.72%
O=S(=O)(Cc1ccccc1)N(O)c1ccccc1	inconclusive: -41.7%
COc1ccc(-c2csc3ncnc(Oc4cccc5ccc(C)nc45)c23)cc1	inconclusive: -43%
COC(=O)c1ccc(CSc2nnc(NC(=O)C3CCCO3)s2)cc1 (stereo unspecified)	inconclusive: -46.9%
Cc1ccc(-n2ncc3c2ncn2c(C)nnc32)cc1C	active: -66.8%
CCOC1(OCC)C(c2ccc(N)cc2)C(C#N)(C#N)C1(OCC)OCC (stereo unspecified)	inactive: 49.5%
Cc1ccsc1/C=C/c1n[nH]c(=O)c(C#N)c1C	inconclusive: -45%
CC1(C)c2[nH]c3ccccc3c2C[C@@H]2C(=O)N(Cc3ccccc3Cl)C(=O)N21	inconclusive: -59.7%
O=c1c2ccccc2nc(SCc2cccc(F)c2)n1C1CCCC1	inconclusive: -58%
CN(C)S(=O)(=O)Nc1ccc(-c2cn3ccsc3n2)cc1	inactive: -36.2%
Cc1sc(N)c(C(=O)c2ccccc2Cl)c1C	inconclusive: -48.1%
Cc1cc(-n2c(=O)c(C#N)cc3c(=O)n4ccccc4nc32)no1	inactive: 27.3%
O=C(CSCc1cnn(-c2ccccc2)c1-n1cccc1)NCc1ccccc1F	active: -75.8%
CCCCOc1ccc(S(=O)(=O)n2nc(C)c(S(=O)(=O)N3CCC(C)CC3)c2C)cc1	inactive: -15.3%
CCCn1c(N2CCN(CC(=O)c3c(C)n(C)c4ccc(OC)cc34)CC2)nc2c1c(=O)[nH]c(=O)n2C	inactive: -36.6%
O=C(Nc1ccc(N2CCOCC2)cc1)c1ccccc1SCC(=O)N1CCCC1	inactive: 41.2%
CC(=O)Nc1ccc(Nc2cc(C)nc3c(-c4ccc(Cl)cc4)c(C)nn23)cc1	inconclusive: -43.8%
c1ccc(-c2ncnc3cc4n(c23)CCC4)cc1	inconclusive: -52.1%
Clc1cccc(N2CCN(c3nnnn3-c3ccccc3)CC2)c1	inconclusive: -57.3%
COc1cccc(Cc2nc3ccccc3nc2SCC(=O)N2CCCCC2C)c1 (stereo unspecified)	inactive: -38.5%
CCOC(=O)c1c(C)nc(SC)c(C#N)c1-c1ccccc1	inconclusive: -48.6%

Looked up above:
Value of COc1cccc(Cc2nc3ccccc3nc2SCC(=O)N2CCCCC2C)c1 (stereo unspecified) under activity change, negative = inhibition: inactive: -38.5%
Value of CCOC1(OCC)C(c2ccc(N)cc2)C(C#N)(C#N)C1(OCC)OCC (stereo unspecified) under activity change, negative = inhibition: inactive: 49.5%
Value of CC(=O)Nc1ccc(Nc2cc(C)nc3c(-c4ccc(Cl)cc4)c(C)nn23)cc1 under activity change, negative = inhibition: inconclusive: -43.8%
Value of Clc1cccc(N2CCN(c3nnnn3-c3ccccc3)CC2)c1 under activity change, negative = inhibition: inconclusive: -57.3%
Value of c1ccc(-c2ncnc3cc4n(c23)CCC4)cc1 under activity change, negative = inhibition: inconclusive: -52.1%

(cont.)

SMILES	activity change, negative = inhibition
Cc1[nH]c(=O)c(C#N)c(C)c1CCC(=O)NCc1cccc(C(F)(F)F)c1	inconclusive: -45.6%
CCOC(=O)[C@]12Cc3cc(C)ccc3[C@H]1N(C1CCCCC1)C(=O)c1cc(OC)ccc12	active: -104%
CC(=O)c1sc(NC(=O)C=C(C)C)nc1C	active: -69.3%
COc1cc(C(O)c2nc(-c3ccccc3)cs2)ccc1F (stereo unspecified)	inconclusive: -50.9%
CCc1nnc(NC(=O)CSc2nc3c(C)cccc3[nH]2)s1	inconclusive: -48.9%
COc1ccc([C@@H]2OC2(C(N)=O)C(N)=O)cc1	inconclusive: -43.4%
FC(F)(F)c1cnc(COc2cc(Cl)cc(Cl)c2)c(Cl)c1	inconclusive: -55.9%
CS(=O)(=O)N(CCc1ccccc1)CC(=O)N1CCN(Cc2ccccc2)CC1	inconclusive: -42.4%
COc1ccc(N2CCN(Cc3nc4c(c(=O)[nH]c(=O)n4C)n3CC(C)=O)CC2)cc1	inactive: 57%
Cn1c(/C=C/c2ccc(Br)cc2)c([N+](=O)[O-])c(=O)n(C)c1=O	active: -100%
CCc1ccccc1NC(=O)CSc1nnc(-c2cc(C)[nH]n2)n1N	inconclusive: -52.8%
CC(C)c1ccc(C2=CC(c3cccc(Cl)c3)n3ncnc3N2)cc1 (stereo unspecified)	inactive: 3.5%
CCCN1C(C(=O)c2ccccc2)=C(OC(=O)c2ccc(F)cc2)c2ccccc2S1(=O)=O	active: -89.6%
CC1CCCCC1NC(=O)COC(=O)c1c2c(nc3ccccc13)/C(=C/c1ccco1)CC2 (stereo unspecified)	inactive: -32.7%
COc1cccc(C(=O)Nc2nc(-c3ccncc3)cs2)c1	inconclusive: -54.8%
Cc1nn(C(C)C(=O)NC2CCC(C)CC2)c(=O)c2c1sc1ccccc12 (stereo unspecified)	inactive: -22.2%
O=S(=O)(NCCc1csc2nc(-c3ccccc3)nn12)c1cccs1	inactive: -36.6%
CCOc1ccccc1-c1noc(CCC(=O)NC2CCCCC2)n1	inactive: -3.68%
CCOC(=O)Cn1c(=O)c2c(nc3n2CCCN3Cc2ccccc2)n(C)c1=O	inconclusive: -45.4%
COc1ccc(NC2c3ccccc3C(=O)N2c2ccccn2)cc1 (stereo unspecified)	active: -79.7%
Oc1cc(NCCN2CCOCC2)cc2cccnc12	active: -87.4%
Cc1cccc(N2CCN(C(=O)CN3CCOc4ccccc43)CC2C)c1 (stereo unspecified)	inconclusive: -43.9%
CSC(=NC#N)N1CCN(c2ccc(Cl)cc2)CC1	inconclusive: -47.7%

SMILES	activity change, negative = inhibition
CCOC(=O)c1ccc(NC(=O)c2ccc(NC(=O)c3ccccc3)cc2)cc1	inactive: 25%
O=C(NCCCn1ccnc1)c1noc2c1CCCC2	inconclusive: -42%
CCOc1ccccc1NC(=S)NCCc1ccc(F)cc1	active: -64.8%
Cc1cc(/C=C2/C(=O)NN(c3ccccc3)C2=O)c(C)n1-c1cccc(O)c1	inconclusive: -57.8%
CN(C)CCOc1nc(-c2ccccc2)nc2c1oc1ccccc12	active: -76.8%
COc1cccc(C2NC(=S)NC3=C2CCc2ccccc23)c1 (stereo unspecified)	inconclusive: -44.6%
COc1ccc(N(CC(=O)NC(C)c2ccccc2)S(=O)(=O)c2c(C)nn(C)c2C)cc1 (stereo unspecified)	inactive: 1.05%
CC1=NN(Cc2ccccc2)C(=O)/C1=C\c1ccc(N(C)C)cc1	inconclusive: -46.3%
CC[N+](CC)(CC)CCCCOc1ccc2c(c1)C(=O)c1cc(OCCCC[N+](CC)(CC)CC)ccc1-2	inconclusive: -43%
O=C(NCCCn1ccnc1)c1cc(-c2ccc(Br)cc2)on1	inconclusive: -51.8%
Cc1ccc(C(=O)NCc2ccccn2)o1	inconclusive: -51.3%
Cc1cccc(NC(=O)CSc2nc(=O)n(CCCN3CCOCC3)c3c2CCCC3)c1C	inconclusive: -49.1%
Cn1c(O)c(C2=c3ccccc3=NC2=O)sc1=Nc1ccc(Cl)cc1	active: -66.6%
Cc1ccc(NC(=O)c2cccc(S(=O)(=O)N(C)c3ccccc3)c2)cc1S(=O)(=O)N1CCOCC1	active: -70.1%
COc1cccc(C(NC(C)=O)c2ccc3cccnc3c2O)c1 (stereo unspecified)	active: -99%
O=C(CN1CCOCC1)Nc1nc2ccc(Br)cc2s1	inconclusive: -48.8%
Cn1c(=O)oc2cc(S(=O)(=O)Nc3cccc4c3CCCC4)ccc21	active: -90.7%
O=C(CSc1nnnn1C1CC1)N1CCN(c2ccc(O)cc2)CC1	inconclusive: -52.5%
COc1cccc(CNC(=O)CSc2ccc(-c3cccs3)nn2)c1	inconclusive: -43.2%
N#C/C(=C(/O)COC(=O)c1ccc(O)cc1)c1nc2ccccc2[nH]1	inactive: -1.5%
CC(C)CNc1nc(S(=O)(=O)c2ccccc2)c(Cl)s1	inconclusive: -54.1%
Brc1cccc(CNc2nc3ccccc3n2CCN2CCCCC2)c1	inconclusive: -41.5%
